In PubChem BioAssay AID2685 (National Center for Advancing Translational Sciences (NCATS), 2010):
Some of the results follow. These are further read-outs of the screen, such as a control signal, another cell line or another target. No call is given for them. Most of these compounds were active or inconclusive in the main read-out, so they are no random draw. Potencies come from curve fits of mixed quality, noted in brackets.

Assay: qHTS Assay for Lipid Storage Modulators in Drosophila S3 Cells;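 for cell number change: cells counted by Cell Tracker Red CMTPX staining in the red channel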
Conditions: BODIPY lipid droplet fluorescence, 18-24 h; for cell number change: measured here: cell count max response, cells fed with added oleic acid
How it was run: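 Laser-scanning cytometry quantifies lipid droplet accumulation (500–530 nm total intensity; droplet/cell object ratio) in oleic acid-fed (400 uM added) Drosophila S3 cells treated with a concentration series. 20 uM Triacsin C defined 100% inhibition.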

[1] = measured here: cell number channel AC50, cells fed with added oleic acid
[2] = measured here: lipid fluorescence (Fed channel) AC50, cells fed with added oleic acid

Compound	cell number change [%]	AC50 [1]	AC50 [2]
COc1ccc(CCC(=O)N2CCN(c3ccc([N+](=O)[O-])cc3)CC2)cc1OC	47.5	13 µM [rising, partial curve, poor fit]	–
CCOC(=O)c1ccccc1NC(=O)COC(=O)c1ccccc1C(=O)N(C)c1ccccc1	42.9	2.59 µM [rising, full curve]	0.366 µM [rising, full curve]
Cc1ccc(S(=O)(=O)NNC(=O)C2CCCCC2)cc1	–	–	0.82 µM [falling, full curve]
COc1ccc(-c2noc(=O)n2Cc2ccccc2F)cc1	2.46	–	2.06 µM [rising, partial curve]
Cc1ccc2cc(CN(c3ccccc3C)S(=O)(=O)c3ccccc3)c(=O)[nH]c2c1	-5.81	–	0.731 µM [falling, single point]
Cc1ccc(C(=O)Nc2nnc(S(=O)(=O)N3CCOCC3)s2)cc1	4.32	–	23.1 µM [rising, single point]
O=C(Nc1ccc(S(=O)(=O)Nc2nccs2)cc1)c1ccc(S(=O)(=O)N2CCOCC2)cc1	-19.8	0.082 µM [rising, full curve, poor fit]	–
Cc1cc(C)c(C)c(S(=O)(=O)Nc2ccc(O)cc2)c1C	–	–	6.51 µM [falling, single point]
CCc1c(C#N)c(SCCC(=O)Nc2ccc(OC)cc2)nc2c1C(=O)CC(C)(C)C2	-6.35	–	0.58 µM [rising, single point]
Cc1cc(C(=O)N2CCCC(N3CCN(c4ccccc4C)CC3)C2)n(C)n1 (stereo not drawn)	8.67	–	0.0058 µM [rising, full curve, poor fit]
CCCCC(=O)NC1(C(F)(F)F)C(=O)N(Cc2ccco2)C(C)=C1C(=O)OC (stereo not drawn)	20.1	–	29.1 µM [rising, single point]
Cc1cccc(OCC(=O)NCCNC(=O)c2ccco2)c1	19.2	–	25.9 µM [rising, single point]
CSCCNC(=O)c1ccc(OC2CCN(S(=O)(=O)N(C)C)CC2)cc1	10.6	–	–
Cc1cc(=O)[nH]c2c(C)c(N)ccc12	32.1	5.17 µM [rising, partial curve]	6.51 µM [rising, partial curve, poor fit]
COc1cccc(C(=S)N2CCCC2)c1OC	-6.3	–	6.51 µM [falling, single point]
Cc1nnc(NC(=O)c2oc3ccccc3c2C)s1	–	2.59 µM [rising, partial curve, poor fit]	–
O=C(/C=C\Nc1ccc2c(c1)OCO2)c1ccc(Cl)s1	66.2	29.1 µM [rising, single point]	–
COc1cccc(NC(=O)Cn2cc(C=O)c3ccccc32)c1	-17.9	–	18.4 µM [falling, single point]
c1ccc(-c2cn3c(n2)CCc2ccc4cccnc4c2-3)cc1	24.6	–	2.59 µM [rising, single point]
O=C(CSc1ccc(Cl)cc1)NCC1CCCO1 (stereo not drawn)	-17.1	0.651 µM [falling, full curve, poor fit]	–

Compound	cell number change [%]	AC50 [1]	AC50 [2]
COc1ccc(-c2noc(C(C)NS(=O)(=O)c3ccc(NC(C)=O)cc3)n2)cc1 (stereo not drawn)	20.6	–	–
COc1cc(C)ccc1OCCOc1c(Cl)cc(Cl)cc1Cl	-4.23	–	4.61 µM [falling, single point]
Cc1cccc(-c2oc3ccc(-c4ccc5c(c4)OCO5)cc3c2/C=C/c2ccc(N)cc2)c1	-10	–	6.51 µM [rising, single point]
CCOC(=O)c1cnn2c(C(F)(F)F)cc(-c3ccco3)nc12	-18.8	–	–
CCCCNc1nc(=S)[nH]c2cc(OC)c(OC)cc12	93.9	29.1 µM [rising, single point]	–
O=[N+]([O-])c1ccc(O)c(/C=N/Nc2ncnc3c2cnn3-c2ccccc2)c1	-28.8	–	4.61 µM [falling, full curve, poor fit]
COc1cc(OC)cc(C(=O)NC(C(=O)NCc2ccccn2)C(C)C)c1 (stereo not drawn)	-1.3	–	20.6 µM [rising, single point]
CCCCn1c(N)c(N(CCOC)C(=O)c2cc(-c3ccc(F)cc3)nc3ccccc23)c(=O)[nH]c1=O	5.97	–	–
C=CCN=c1scc(-c2ccco2)n1/N=C/c1ccc(O)c(O)c1O	-31.4	0.0517 µM [falling, full curve]	0.651 µM [falling, full curve]
O=C(CCNS(=O)(=O)c1cccc2nonc12)N1CCN(c2cccc(Cl)c2)CC1	69.4	13 µM [rising, partial curve]	–
Cc1ccc(NC(=O)NCCc2ccc(S(N)(=O)=O)cc2)cc1	1.06	–	13 µM [rising, partial curve, poor fit]
O=C(Nc1cccc(C(=O)Nc2ccc(Br)cc2)c1)c1ccccc1	40.4	–	11.6 µM [falling, single point]
CC1CCCC(=C\c2ccccc2)/C1=N/O (stereo not drawn)	15	3.66 µM [rising, single point]	–
CCOC(=O)N1CCN(C(=O)c2cc3cc(F)ccc3[nH]2)CC1	10.4	–	4.11 µM [rising, full curve, poor fit]
CCN(CC(=O)Nc1c(F)cccc1F)C(=O)CCc1ccc(OC)cc1	–	–	2.91 µM [rising, single point]
CCN(CC)S(=O)(=O)c1ccc(Cl)c(C(=O)Nc2cc(C)nn2-c2ccccc2)c1	11.1	–	6.51 µM [falling, single point]
CN(C(=O)CCNC(=O)Cn1ccc2ccccc2c1=O)c1ccc(Br)cc1	16.7	–	29.1 µM [rising, single point]
CC1CC(C)CN(CCCNC(=O)c2csc3c2CCCC3)C1 (stereo not drawn)	21.2	–	–
COc1ccc(/C=C(\C#N)C(=O)OCC(=O)Nc2ccc(-c3nc4ccc(C)cc4s3)cc2)cc1	7.32	–	–
COc1ccc(S(=O)(=O)N2CCN(C3CCN(Cc4ccccc4)CC3)CC2)cc1	-24.9	3.26 µM [falling, full curve, poor fit]	10.3 µM [rising, partial curve, poor fit]

Reformatted in markdown: part of the list above

| Compound | cell number change [%] | AC50 [1] | AC50 [2] |
| --- | --- | --- | --- |
| CCOC(=O)N1CCN(C(=O)c2cc3cc(F)ccc3[nH]2)CC1 | 10.4 | – | 4.11 µM [rising, full curve, poor fit] |
| CCN(CC(=O)Nc1c(F)cccc1F)C(=O)CCc1ccc(OC)cc1 | – | – | 2.91 µM [rising, single point] |

Going on with the list:

Compound	cell number change [%]	AC50 [1]	AC50 [2]
O=C(COC(=O)c1ccc(S(=O)(=O)N2CCCC2)cc1)Nc1cccnc1Cl	-0.311	–	–
O=S(=O)(NCCC1=CCCCC1)c1ccccc1Cl	-29.9	–	13 µM [falling, partial curve, poor fit]
Cc1ccc(C(=O)Nc2nc(-c3cccnc3)cs2)o1	-10.7	–	–
c1ccc(N/N=C(\Cc2nc3ccccc3[nH]2)c2ccccc2)cc1	-9.17	–	2.06 µM [rising, partial curve, poor fit]
Clc1ccc(OCc2nn3c(-c4ccco4)nnc3s2)c(Cl)c1	-42.9	29.1 µM [falling, single point]	3.66 µM [rising, single point]
CCCc1cc(=O)oc2cc(C)cc(OC(C)C(=O)NCc3cccnc3)c12 (stereo not drawn)	19	–	–
O=C(CN1CCN(c2ccccn2)CC1)Nc1ccc([N+](=O)[O-])cc1C(=O)Nc1ccccc1F	-50.4	16.4 µM [falling, partial curve]	20.6 µM [falling, partial curve]
COc1ccc(S(=O)(=O)NCc2cccnc2)cc1Br	-34.1	10.3 µM [falling, partial curve, poor fit]	29.1 µM [falling, single point]
COC(C[C@H]1O[C@@H]1[C@H](O)COCc1ccccc1)OC	-27.6	0.82 µM [falling, partial curve]	6.51 µM [rising, single point]
COc1ccc(-c2sc3cc4c(cc3c2C#CC2(N)CCCCC2)OCO4)cc1	-89	23.1 µM [falling, single point]	11.6 µM [falling, single point]
COc1ccccc1N1CCN(S(=O)(=O)CCNC(=O)C2CCCCC2)CC1	–	–	0.092 µM [falling, full curve, poor fit]
Nn1cnnc1SCC(=O)Nc1ccc2c(c1)OCO2	–	–	20.6 µM [rising, single point]
COc1cc([N+](=O)[O-])cc(/C=N/NC(=O)C(C)Nc2cccc3ccccc23)c1O (stereo not drawn)	0.677	–	18.4 µM [rising, single point]
C#CCOCCOCCOCCNc1nc(N2CCN(C(=O)Cn3cc(CCCCN)nn3)CC2)nc(N2CCN(C(=O)[C@H](CCCCN)n3cc(CCC(=O)O)nn3)CC2)n1	-7.98	–	0.146 µM [falling, full curve, poor fit]
CCCCN(C(=O)c1ccc(NC(=O)C(C)C)cc1)c1ccccc1	-16.2	–	–
Cc1nc(N2CCOCC2)c2oc3ccccc3c2n1	-13.1	–	20.6 µM [falling, single point]
COc1ccc(OC)c(/C=N/NC(=O)CN2CCSCC2)c1	-2.89	–	25.9 µM [rising, single point]
O=C(C1=C(O)C(=O)N(c2ncccn2)C1c1ccc(Cl)c(Cl)c1)c1ccco1 (stereo not drawn)	-2.33	–	–
CCOC(=O)CSc1nnc(-c2ccccc2NC(=O)c2ccccc2)o1	17.3	–	29.1 µM [rising, single point]
CS(=O)(=O)N1CCN(c2ccc(NC(=O)COc3ccccc3)cc2)CC1	-30.1	0.116 µM [falling, full curve, poor fit]	0.461 µM [falling, full curve, poor fit]
